According to US9795684B2, “Interfering RNA delivery system and uses thereof” (Arrowhead Research Corporation, priority 2007, dated 2017):
Not every detail of the peptide structures is certain; ends, links or a residue may be inferred. Square brackets hold non-standard residues; d marks the D form. Peptide text beside a SMILES is read from it.

Tested on: GTM-3 cells
Experiment: Uptake of Dy547-siRNA into GTM-3 cells by flow cytometry (FACS)
Format: cell-based
Details: 400 nM siRNA, siRNA:peptide 1:10, serum-free 4 h, harvested after 24 h

Compound | uptake of Dy547-siRNA (labeling of cells), result in words | cells with increased fluorescence signal (uptake of Dy547-siRNA)
N=C(N)NCCC[C@@H](N)C(=O)N[C@H](CCCNC(=N)N)C(=O)N[C@H](CCCNC(=N)N)C(=O)N[C@H](CCCNC(=N)N)C(=O)N[C@H](CCCNC(=N)N)C(=O)N[C@H](CCCNC(=N)N)C(=O)N[C@H](CCCNC(=N)N)C(=O)N[C@H](CCCNC(=N)N)C(=O)N[C@H](CCCNC(=N)N)C(=O)O [9×Arg peptide, R^†R^†R^†R^†R^†R^†R^†R^†R^†, reference compound] | did not enhance uptake | 
CSCC[C@@H](NC(=O)[C@@H](CCCCN)NC(=O)[C@@H](Cc1c[nH]c2ccccc12)NC(=O)[C@@H](CCCCN)NC(=O)[C@H](N)CCCCN)C(=O)N[C@H](CCCNC(=N)N)C(=O)N[C@H](CCCNC(=N)N)C(=O)NCC(=O)N[C@H](C)C(=O)NCC(=O)N[C@H](CCCNC(=N)N)C(=O)N[C@H](CCCNC(=N)N)C(=O)N[C@H](CCCNC(=N)N)C(=O)N[C@H](CCCNC(=N)N)C(=O)N[C@H](CCCNC(=N)N)C(=O)N[C@H](CCCNC(=N)N)C(=O)N[C@H](CCCNC(=N)N)C(=O)N[C@H](CCCNC(=N)N)C(=O)N[C@H](CCCNC(=N)N)C(=O)O [Pen7-9×Arg peptide, K^†K^†W^†K^†M^†R^†R^†GA^†GR^†R^†R^†R^†R^†R^†R^†R^†R^†] (H-[dK][dK][dW][dK][dM][dR][dR]G[dA]G[dR][dR][dR][dR][dR][dR][dR][dR][dR]-OH) | enhanced uptake of the Dy547-siRNA significantly | approximately 88%
